Measurements published in the supplement of paper PMC6078165.

Tested on: MDAMB436
Assay: relative JC-1 red fluorescence (viability) vs pre-drug, coculture with fibroblast (fraction); higher = more viable cancer cells
Procedure: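 JC-1 labelled TNBC cells cocultured 1:1 (1,500 cells each) with CellTrace Violet stained primary or stromal fibroblasts in 384-well plates in FluoroBrite medium, treated with one of 42 anticancer drugs at 0.1, 1, 10 or 100 uM. JC-1 red fluorescence (mitochondrial integrity in cancer cells only) was read by plate reader every 8 h for 72 h. Values are normalised to each well's pre-drug value. The stock of one drug was tenfold lower, so its dose labels may be too high.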

Cc1c2oc3c(C)ccc(C(=O)N[C@@H]4C(=O)N[C@H](C(C)C)C(=O)N5CCC[C@H]5C(=O)N(C)CC(=O)N(C)[C@@H](C(C)C)C(=O)O[C@@H]4C)c3nc-2c(C(=O)N[C@@H]2C(=O)N[C@H](C(C)C)C(=O)N3CCC[C@H]3C(=O)N(C)CC(=O)N(C)[C@@H](C(C)C)C(=O)O[C@@H]2C)c(N)c1=O [Dactinomycin] (I: T[dV]P[Sar][NMeV] / II: T[dV]P[Sar][NMeV]; ester I:1-I:C, II:1-II:C; linker I:N-II:N via Actinocin(9to1))
relative JC-1 red fluorescence
Settings | 8 h | 16 h | 24 h | 32 h | 40 h | 48 h | 56 h | 64 h | 72 h
0.1 µM, coculture fibroblast: C12385 | 0.765 | 0.714 | 0.691 | 0.616 | 0.58 | 0.563 | 0.555 | 0.546 | 0.552
0.1 µM, coculture fibroblast: H6013 | 0.79 | 0.778 | 0.78 | 0.793 | 0.805 | 0.86 | 0.837 | 0.85 | 0.834
0.1 µM, coculture fibroblast: H6019 | 0.765 | 0.73 | 0.712 | 0.658 | 0.643 | 0.644 | 0.647 | 0.635 | 0.632
0.1 µM, coculture fibroblast: H6076 | 0.776 | 0.724 | 0.725 | 0.685 | 0.683 | 0.68 | 0.72 | 0.736 | 0.749
0.1 µM, coculture fibroblast: H6231 | 0.688 | 0.679 | 0.733 | 0.666 | 0.6842 | 0.667 | 0.6846 | 0.6967 | 0.716
0.1 µM, coculture fibroblast: HADF | 0.774 | 0.7559 | 0.7503 | 0.7333 | 0.75 | 0.801 | 0.765 | 0.773 | 0.763
0.1 µM, coculture fibroblast: HCFa | 0.7741 | 0.7523 | 0.741 | 0.738 | 0.756 | 0.808 | 0.788 | 0.813 | 0.779
0.1 µM, coculture fibroblast: HCPF | 0.7357 | 0.712 | 0.749 | 0.703 | 0.721 | 0.707 | 0.747 | 0.755 | 0.784
0.1 µM, coculture fibroblast: HHSteC | 0.839 | 0.854 | 0.872 | 0.872 | 0.905 | 0.86136 | 0.832 | 0.791 | 0.892
0.1 µM, coculture fibroblast: HMF | 0.725 | 0.687 | 0.692 | 0.661 | 0.678 | 0.663 | 0.708 | 0.726 | 0.765
0.1 µM, coculture fibroblast: HPFa | 0.832 | 0.8073 | 0.798 | 0.7826 | 0.8061 | 0.863 | 0.842 | 0.8592 | 0.815
0.1 µM, coculture fibroblast: HUF | 0.7835 | 0.724 | 0.712 | 0.652 | 0.614 | 0.612 | 0.621 | 0.628 | 0.635
0.1 µM, coculture fibroblast: Hs5 | 0.7379 | 0.728 | 0.763 | 0.726 | 0.756 | 0.75 | 0.796 | 0.781 | 0.802
0.1 µM, coculture fibroblast: Hs27A | 0.805 | 0.815 | 0.833 | 0.848 | 0.866 | 0.834 | 0.91 | 0.813 | 0.893
0.1 µM, coculture fibroblast: Hs343T | 0.762 | 0.719 | 0.706 | 0.669 | 0.663 | 0.648 | 0.654 | 0.667 | 0.677
0.1 µM, coculture fibroblast: WS1 | 0.756 | 0.723 | 0.725 | 0.66 | 0.643 | 0.631 | 0.638 | 0.644 | 0.66
1 µM, coculture fibroblast: C12385 | 0.746 | 0.718 | 0.71375 | 0.6468 | 0.6373 | 0.627 | 0.628 | 0.635 | 0.652
1 µM, coculture fibroblast: H6013 | 0.8052 | 0.779 | 0.763 | 0.766 | 0.775 | 0.8038 | 0.786 | 0.782 | 0.757
1 µM, coculture fibroblast: H6019 | 0.73328 | 0.687 | 0.665 | 0.6 | 0.578 | 0.576 | 0.561 | 0.561 | 0.558
1 µM, coculture fibroblast: H6076 | 0.768 | 0.722 | 0.736 | 0.71 | 0.698 | 0.688 | 0.704 | 0.707 | 0.707
1 µM, coculture fibroblast: H6231 | 0.758 | 0.702 | 0.755 | 0.692 | 0.701 | 0.683 | 0.699 | 0.689 | 0.684
1 µM, coculture fibroblast: HADF | 0.767 | 0.7606 | 0.7501 | 0.74 | 0.78 | 0.838 | 0.793 | 0.809 | 0.783
1 µM, coculture fibroblast: HCFa | 0.806 | 0.79 | 0.792 | 0.783 | 0.805 | 0.839 | 0.811 | 0.825 | 0.804
1 µM, coculture fibroblast: HCPF | 0.78593 | 0.747 | 0.767 | 0.723 | 0.731 | 0.707 | 0.715 | 0.703 | 0.7
1 µM, coculture fibroblast: HHSteC | 0.864 | 0.831 | 0.811 | 0.798 | 0.809 | 0.821 | 0.775 | 0.759 | 0.713
1 µM, coculture fibroblast: HMF | 0.766 | 0.71 | 0.716 | 0.69 | 0.692 | 0.677 | 0.699 | 0.687 | 0.69
1 µM, coculture fibroblast: HPFa | 0.844 | 0.8271 | 0.8237 | 0.8018 | 0.815 | 0.85 | 0.796 | 0.799 | 0.775
1 µM, coculture fibroblast: HUF | 0.815 | 0.77 | 0.763 | 0.708 | 0.685 | 0.679 | 0.666 | 0.661 | 0.663
1 µM, coculture fibroblast: Hs5 | 0.8 | 0.768 | 0.778 | 0.748 | 0.76 | 0.733 | 0.764 | 0.745 | 0.754
1 µM, coculture fibroblast: Hs27A | 0.802 | 0.775 | 0.776 | 0.792 | 0.792 | 0.792 | 0.803 | 0.816 | 0.753
1 µM, coculture fibroblast: Hs343T | 0.784 | 0.737 | 0.732 | 0.705 | 0.71 | 0.687 | 0.689 | 0.683 | 0.693
1 µM, coculture fibroblast: WS1 | 0.754 | 0.7004 | 0.6806 | 0.619 | 0.598 | 0.592 | 0.58247 | 0.576 | 0.5809

The reference is the same well before dosing, and untreated signal decays as well.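 Labels refer to human fibroblasts, largely primary: uterine (C12385, HUF), lung (H6013), bone (Hs27A), adrenal (HADF), skin (WS1), plus mammary HMF and breast cancer-associated Hs343T. Cancer lines are basal-like or mesenchymal-like triple-negative breast cancer. The paper counts as hits responses shifting over 3x the replicate standard deviation. The tissue of the other fibroblasts is not given here.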 Numbered stars: 1 amine (or outer) side, 2 acyl side, 3 side chain; on linkers, the order of the positions; unused ones are H or OH. Bridge positions count the residues as written; N and C are the ends. Square brackets hold non-standard residues; d marks the D form. Peptide text beside a SMILES is read from it. I, II: the chains in the order shown. Actinocin(9to1) = Cc1c2oc3c(C)ccc(C(=O)[*:1])c3nc-2c(C(=O)[*:2])c(N)c1=O; NMeV = CN[C@H](C(=O)O)C(C)C; Sar = CNCC(=O)O
